Experimental data from article PMC9845743.
No constants are given. Whether binding was seen depends on the method and setting. In cells and extracts the contact can be indirect. A yes stands for co-enrichment or nearness to the bait. Other partners may have been found. For part of these data: A no says only that the protein was not detected with the bait. For part of these data: Where a sequence is shown, tags or fusion partners need not be part of it.

Amino acid sequences for entries named in this document (tags omitted).
UniProt Q60722: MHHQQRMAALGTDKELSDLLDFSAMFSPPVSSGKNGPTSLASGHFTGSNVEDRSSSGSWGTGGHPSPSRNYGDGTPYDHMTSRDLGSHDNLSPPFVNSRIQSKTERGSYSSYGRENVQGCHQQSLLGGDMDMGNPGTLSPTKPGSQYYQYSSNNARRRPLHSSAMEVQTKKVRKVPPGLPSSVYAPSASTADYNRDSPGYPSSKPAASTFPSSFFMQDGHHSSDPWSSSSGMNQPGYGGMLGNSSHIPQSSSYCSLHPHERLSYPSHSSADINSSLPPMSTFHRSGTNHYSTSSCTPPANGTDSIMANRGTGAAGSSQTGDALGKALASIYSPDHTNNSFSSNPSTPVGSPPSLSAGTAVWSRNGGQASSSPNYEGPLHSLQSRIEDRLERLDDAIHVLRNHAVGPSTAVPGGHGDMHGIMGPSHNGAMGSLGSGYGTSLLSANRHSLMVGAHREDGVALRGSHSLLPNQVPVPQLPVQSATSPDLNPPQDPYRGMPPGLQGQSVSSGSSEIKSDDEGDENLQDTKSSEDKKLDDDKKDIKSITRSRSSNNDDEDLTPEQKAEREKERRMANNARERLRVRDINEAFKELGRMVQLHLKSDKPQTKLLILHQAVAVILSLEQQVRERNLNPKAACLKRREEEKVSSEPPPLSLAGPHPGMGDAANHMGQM

How the values were obtained:
Assay in all cases: affinity purification with mass spectrometry; FLAG-tagged bait (ID1, ID2, ID3, TCF3 or TCF4) transfected into mouse epidermal progenitor cells; precipitated on Sepharose beads with anti-FLAG M2 (IgG as control), washed in TBS, eluted with FLAG peptide (200 ug/ml in TBS), eluate analysed by mass spectrometry; hits scored by lack of signal in the IgG control, coverage and protein score
FLAG-tagged ID2 = target: T1, FLAG-tagged ID2 (UniProt P41136)
T1 sequence: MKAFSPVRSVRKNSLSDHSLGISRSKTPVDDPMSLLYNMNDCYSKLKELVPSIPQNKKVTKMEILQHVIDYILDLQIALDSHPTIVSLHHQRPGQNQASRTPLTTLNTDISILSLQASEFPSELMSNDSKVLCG

FLAG-tagged TCF4 = FLAG-tagged TCF4 (UniProt Q60722)
FLAG-tagged ID3, P41133 = target: T2, FLAG-tagged ID3, P41133; details: remark: other sources report otherwise
T2 chain: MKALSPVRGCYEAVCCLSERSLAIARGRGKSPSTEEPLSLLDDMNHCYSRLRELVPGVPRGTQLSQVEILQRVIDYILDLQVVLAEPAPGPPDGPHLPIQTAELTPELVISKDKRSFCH

## TCF3 (E2A) (from UniProt P15806 1-651)
FLAG-tagged ID2
  binding: no binding

B1: ID1 (endogenous) (protein, UniProt P20067 1-168)
chain: MKVASGSAAAAAGPSCSLKAGRTAGEVVLGLSEQSVAISRCAGTRLPALLDEQQVNVLLYDMNGCYSRLKELVPTLPQNRKVSKVEILQHVIDYIRDLQLELNSESEVGTTGGRGLPVRAPLSTLNGEISALAAEVRSESEYYIILQWETEATGGGCPPSLLFRRIAI
FLAG-tagged TCF4
  binding: binds

B2: TCF3 (E2A), P15806 1-651 (protein)
chain: MMNQSQRMAPVGSDKELSDLLDFSMMFPLPVANGKSRPASLGGTQFAGSGLEDRPSSGSWGSSDQNSSSFDPSRTYSEGAHFSDSHSSLPPSTFLGAGLGGKGSERNAYATFGRDTSVGTLSQAGFLPGELSLSSPGPLSPSGIKSSSQYYPSFPSNPRRRAADGGLDTQPKKVRKVPPGLPSSVYPPSSGDSYSRDAAAYPSAKTPSSAYPSPFYVADGSLHPSAELWSTPSQVGFGPMLGDGSSPLPLAPGSSSVGSGTFGGLQQQDRMGYQLHGSEVNGSLPAVSSFSAAPGTYSGTSGHTPPVSGAAAESLLGTRGTTASSSGDALGKALASIYSPDHSSNNFSPSPSTPVGSPQGLPGTSQWPRAGAPSALSPNYDAGLHGLSKMEDRLDEAIHVLRSHAVGTASDLHGLLPGHGALTTSFTGPMSLGGRHAGLVGGSHPEEGLTSGASLLHNHASLPSQPSSLPDLSQRPPDSYSGLGRAGTTAGASEIKREEKEDEEIASVADAEEDKKDLKVPRTRTSPDEDEDDLLPPEQKAEREKERRVANNARERLRVRDINEAFKELGRMCQLHLSSEKPQTKLLILHQAVAVILSLEQQVRERNLNPKAACLKRREEEKVSGVVGDPQLALSAAHPGLGEAHNPAGHL
FLAG-tagged ID3, P41133
  binding: no binding
